Experimental data reported in US20170082633A1.
No constants are given. Whether binding was seen depends on the method and setting. Some binding calls cover weakened binding; strength is not graded here. Sequences can lack the tags named with a protein.

By UniProt entry, the sequences of proteins in these tests, tags left out. Residues count along the entry.
UniProt Q7L523: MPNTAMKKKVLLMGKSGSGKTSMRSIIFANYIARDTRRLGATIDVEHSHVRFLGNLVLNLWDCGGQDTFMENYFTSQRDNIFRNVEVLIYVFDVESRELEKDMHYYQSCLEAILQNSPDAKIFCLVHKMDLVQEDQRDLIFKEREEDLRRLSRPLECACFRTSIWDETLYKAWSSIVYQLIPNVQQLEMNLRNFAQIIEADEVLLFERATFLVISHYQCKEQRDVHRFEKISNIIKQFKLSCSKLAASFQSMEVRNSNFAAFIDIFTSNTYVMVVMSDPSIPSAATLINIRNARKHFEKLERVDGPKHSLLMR
UniProt Q9HB90, residues 2-399: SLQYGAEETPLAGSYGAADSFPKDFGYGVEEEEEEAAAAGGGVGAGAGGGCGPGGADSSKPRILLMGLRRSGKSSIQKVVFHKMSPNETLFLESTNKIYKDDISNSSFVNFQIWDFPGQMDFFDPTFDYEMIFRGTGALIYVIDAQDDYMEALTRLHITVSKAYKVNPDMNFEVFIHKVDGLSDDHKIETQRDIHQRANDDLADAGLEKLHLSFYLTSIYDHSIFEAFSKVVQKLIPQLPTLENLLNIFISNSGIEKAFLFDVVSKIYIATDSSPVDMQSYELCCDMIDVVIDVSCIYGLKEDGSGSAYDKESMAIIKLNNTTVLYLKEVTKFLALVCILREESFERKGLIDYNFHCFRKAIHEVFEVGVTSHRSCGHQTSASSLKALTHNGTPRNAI

Experiments:
Test in all cases: FLAG IP from transfected HEK-293T cells, immunoblot
endogenous RagA = endogenous RagA (UniProt Q7L523)
endogenous RagC = endogenous RagC (UniProt Q9HB90)
endogenous p14 = endogenous p14 (UniProt Q9Y2Q5)
endogenous p18 = endogenous p18 (UniProt Q6IAA8)

binding (endogenous RagA): binds | binding (endogenous RagC): binds | binding (endogenous p14): binds | binding (endogenous p18): binds
B1: FLAG-SLC38A9.1 H60A (protein)
single chain: MANMNSDSRHLGTSEVDHERDPGPMNIQFEPSDLRSKRPFCIEPTNIVNVNHVIQRVSDAASAMNKRIHYYSRLTTPADKALIAPDHVVPAPEECYVYSPLGSAYKLQSYTEGYGKNTSLVTIFMIWNTMMGTSILSIPWGIKQAGFTTGMCVIILMGLLTLYCCYRVVKSRTMMFSLDTTSWEYPDVCRHYFGSFGQWSSLLFSLVSLIGAMIVYWVLMSNFLFNTGKFIFNFIHHINDTDTILSTNNSNPVICPSAGSGGHPDNSSMIFYANDTGAQQFEKWWDKSRTVPFYLVGLLLPLLNFKSPSFFSKFNILGTVSVLYLIFLVTFKAVRLGFHLEFHWFIPTEFFVPEIRFQFPQLTGVLTLAFFIHNCIITLLKNNKKQENNVRDLCIAYMLVTLTYLYIGVLVFASFPSPPLSKDCIEQNFLDNFPSSDTLSFIARIFLLFQMMTVYPLLGYLARVQLLGHIFGDIYPSIFHVLILNLIIVGAGVIMACFYPNIGGIIRYSGAACGLAFVFIYPSLIYIISLHQEERLTWPKLIFHVFIIILGVANLIVQFFM
